Experimental data from paper PMC3798409.
These are yes or no findings as the source states them, for the method shown. Binding seen in cells or lysates may run through a third protein. Some entries that bind do so weakly or less than the wild type.

Chains of the proteins cited; added tags and fusions are not shown.
UniProt B2RWS6: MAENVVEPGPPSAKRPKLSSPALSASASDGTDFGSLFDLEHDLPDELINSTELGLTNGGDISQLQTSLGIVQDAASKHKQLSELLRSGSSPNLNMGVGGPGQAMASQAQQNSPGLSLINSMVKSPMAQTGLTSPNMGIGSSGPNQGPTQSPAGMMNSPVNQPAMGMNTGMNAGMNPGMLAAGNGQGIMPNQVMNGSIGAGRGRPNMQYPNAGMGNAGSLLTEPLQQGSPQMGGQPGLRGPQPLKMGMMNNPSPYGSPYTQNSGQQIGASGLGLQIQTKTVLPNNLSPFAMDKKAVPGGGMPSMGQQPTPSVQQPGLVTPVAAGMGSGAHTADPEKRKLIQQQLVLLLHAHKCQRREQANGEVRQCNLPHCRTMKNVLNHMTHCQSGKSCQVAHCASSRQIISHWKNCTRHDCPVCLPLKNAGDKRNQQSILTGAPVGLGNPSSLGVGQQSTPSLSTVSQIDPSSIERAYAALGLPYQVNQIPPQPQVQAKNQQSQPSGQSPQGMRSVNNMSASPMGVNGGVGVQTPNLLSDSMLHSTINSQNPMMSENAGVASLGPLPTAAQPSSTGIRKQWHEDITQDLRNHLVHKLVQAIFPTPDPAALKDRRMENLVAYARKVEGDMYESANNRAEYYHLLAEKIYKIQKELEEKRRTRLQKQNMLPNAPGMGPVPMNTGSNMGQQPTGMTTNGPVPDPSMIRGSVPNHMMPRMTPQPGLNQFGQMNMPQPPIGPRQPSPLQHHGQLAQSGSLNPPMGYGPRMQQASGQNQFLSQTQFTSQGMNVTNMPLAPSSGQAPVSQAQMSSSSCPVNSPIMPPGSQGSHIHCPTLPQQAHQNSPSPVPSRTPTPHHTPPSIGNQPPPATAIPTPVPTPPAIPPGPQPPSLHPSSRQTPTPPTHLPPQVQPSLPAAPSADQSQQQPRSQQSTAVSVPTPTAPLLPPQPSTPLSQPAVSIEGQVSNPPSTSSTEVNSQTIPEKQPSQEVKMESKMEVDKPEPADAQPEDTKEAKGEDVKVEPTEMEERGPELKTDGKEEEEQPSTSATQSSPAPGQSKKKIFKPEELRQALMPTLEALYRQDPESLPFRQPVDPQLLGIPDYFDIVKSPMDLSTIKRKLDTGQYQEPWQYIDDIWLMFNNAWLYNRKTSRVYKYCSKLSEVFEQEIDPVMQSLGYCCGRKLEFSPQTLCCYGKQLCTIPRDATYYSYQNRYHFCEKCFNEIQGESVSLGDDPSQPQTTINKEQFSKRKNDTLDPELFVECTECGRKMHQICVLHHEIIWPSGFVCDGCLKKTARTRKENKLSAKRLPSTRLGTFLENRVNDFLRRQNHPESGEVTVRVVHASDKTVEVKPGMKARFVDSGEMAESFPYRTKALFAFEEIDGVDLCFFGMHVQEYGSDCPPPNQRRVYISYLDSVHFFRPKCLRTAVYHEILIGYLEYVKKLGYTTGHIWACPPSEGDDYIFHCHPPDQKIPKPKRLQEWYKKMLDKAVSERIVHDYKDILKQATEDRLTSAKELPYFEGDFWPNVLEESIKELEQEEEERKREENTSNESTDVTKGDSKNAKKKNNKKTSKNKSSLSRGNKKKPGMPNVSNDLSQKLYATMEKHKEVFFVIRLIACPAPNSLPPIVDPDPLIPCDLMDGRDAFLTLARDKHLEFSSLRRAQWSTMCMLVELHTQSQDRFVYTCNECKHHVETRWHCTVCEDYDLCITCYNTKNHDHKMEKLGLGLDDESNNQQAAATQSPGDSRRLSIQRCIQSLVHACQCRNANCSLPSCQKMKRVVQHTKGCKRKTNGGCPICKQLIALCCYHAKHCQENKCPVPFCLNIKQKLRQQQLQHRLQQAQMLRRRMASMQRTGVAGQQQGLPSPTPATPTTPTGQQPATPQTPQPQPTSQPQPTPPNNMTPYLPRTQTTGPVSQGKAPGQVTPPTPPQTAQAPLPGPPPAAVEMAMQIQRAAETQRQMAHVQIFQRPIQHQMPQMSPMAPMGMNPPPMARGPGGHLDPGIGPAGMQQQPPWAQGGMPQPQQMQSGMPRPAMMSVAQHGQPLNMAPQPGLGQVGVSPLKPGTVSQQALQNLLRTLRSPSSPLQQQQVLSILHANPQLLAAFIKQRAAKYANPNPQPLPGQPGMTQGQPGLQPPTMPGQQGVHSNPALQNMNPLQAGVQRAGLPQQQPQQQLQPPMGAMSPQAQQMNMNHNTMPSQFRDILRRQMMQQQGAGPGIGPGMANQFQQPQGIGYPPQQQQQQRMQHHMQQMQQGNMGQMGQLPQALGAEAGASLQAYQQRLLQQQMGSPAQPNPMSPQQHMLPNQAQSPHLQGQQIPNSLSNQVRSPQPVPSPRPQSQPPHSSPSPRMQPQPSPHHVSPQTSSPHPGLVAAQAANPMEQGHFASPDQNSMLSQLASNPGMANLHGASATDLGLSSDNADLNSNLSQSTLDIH

Molecular target: p300 (mouse (endogenous in embryonic heart)) (UniProt B2RWS6)
Assay: co-IP; nuclear proteins from E14.5 mouse embryonic hearts; precleared with normal IgG; precipitated with anti-p300 antibody and protein A/G-agarose at 4°C; Western blot with Islet-1 antibody

- binding: binds
B1: Islet-1 (protein, UniProt P61372 1-349)
chain: MGDMGDPPKKKRLISLCVGCGNQIHDQYILRVSPDLEWHAACLKCAECNQYLDESCTCFVRDGKTYCKRDYIRLYGIKCAKCSIGFSKNDFVMRARSKVYHIECFRCVACSRQLIPGDEFALREDGLFCRADHDVVERASLGAGDPLSPLHPARPLQMAAEPISARQPALRPHVHKQPEKTTRVRTVLNEKQLHTLRTCYAANPRPDALMKEQLVEMTGLSPRVIRVWFQNKRCKDKKRSIMMKQLQQQQPNDKTNIQGMTGTPMVAASPERHDGGLQANPVEVQSYQPPWKVLSDFALQSDIDQPAFQQLVNFSEGGPGSNSTGSEVASMSSQLPDTPNSMVASPIEA
